Reference: US20230348376A1 (TEIJIN PHARMA LIMITED, priority 2020, published 2023)

Test system: rat oligodendrocyte progenitor cells
Test: Promotive activity of rat oligodendrocyte progenitor cell differentiation-2 (immunostaining of MBP)
Format: cell-based
Details: vitamin D derivative 2 μM, T3 30 nM
Procedure: The promotive activity of oligodendrocyte progenitor cell (OPC) differentiation of the vitamin D derivatives was evaluated by immunostaining of MBP.
Subsequently, oligodendrocyte progenitor cell separation medium was added to the flask, and the mixture was similarly shaken for about 22 hours (37° C., 200 rpm), and the supernatant was collected to prepare oligodendrocyte progenitor cells.

## C[C@H](CCN1CCOCC1)[C@H]1CC[C@H]2/C(=C/C=C3C[C@@H](O)C[C@H](O)C3)CCC[C@]12C [Compound D023, (1R,3R)-5-(2-((1R,3aS,7aR,E)-7a-methyl-1-((R)-4-morpholinobutan-2-yl)octahydro-4H-inden-4-ylidene)ethylidene)cyclohexane-1,3-diol]
Test 2
  Significant difference (t-test vs DMSO group): **** (<0.0001)

## C=C1[C@H](O)CC(=C/C=C2\CCC[C@]3(C)[C@@H]([C@H](C)CCN4CCOCC4)CC[C@@H]23)C[C@H]1O [Compound D024, (1R,3R)-5-(2-((1R,3aS,7aR,E)-7a-methyl-1-((R)-4-morpholinobutan-2-yl)octahydro-4H-inden-4-ylidene)ethylidene)-2-methylenecyclohexane-1,3-diol]
Test 2
  Significant difference (t-test vs DMSO group): **** (<0.0001)

## C=C1/C(=C\C=C2/CCC[C@]3(C)[C@@H]([C@H](C)CN4CCCC[C@@H]4C)CC[C@@H]23)C[C@@H](O)C[C@@H]1O [Compound F001, (1R,3S,Z)-5-(2-((1R,3aS,7aR,E)-7a-methyl-1-((S)-1-((S)-2-methylpiperidin-1-yl)propan-2-yl)octahydro-4H-inden-4-ylidene)ethylidene)-4-methylenecyclohexane-1,3-diol]
Test 7
  Significant difference (t-test vs DMSO group): ** (<0.01)

## C=C1/C(=C\C=C2/CCC[C@]3(C)[C@@H]([C@H](C)CN4CCCC[C@H]4C)CC[C@@H]23)C[C@@H](O)C[C@@H]1O [Compound F002, (1R,3S,Z)-5-(2-((1R,3aS,7aR,E)-7a-methyl-1-((S)-1-((R)-2-methylpiperidin-1-yl)propan-2-yl)octahydro-4H-inden-4-ylidene)ethylidene)-4-methylenecyclohexane-1,3-diol]
Test 7
  Significant difference (t-test vs DMSO group): ** (<0.01)

## C=C1/C(=C\C=C2/CCC[C@]3(C)[C@@H]([C@H](C)CN4CCCCC4(C)C)CC[C@@H]23)C[C@@H](O)C[C@@H]1O [Compound F003, (1R,3S,Z)-5-(2-((1R,3aS,7aR,E)-1-((S)-1-(2,2-dimethylpiperidin-1-yl)propan-2-yl)-7a-methyloctahydro-4H-inden-4-ylidene)ethylidene)-4-methylenecyclohexane-1,3-diol]
Test 7
  Significant difference (t-test vs DMSO group): ** (<0.01)

## C=C1/C(=C\C=C2/CCC[C@]3(C)[C@@H]([C@H](C)CN4CCOC[C@@H]4C)CC[C@@H]23)C[C@@H](O)C[C@@H]1O [Compound F004, (1R,3S,Z)-5-(2-((1R,3aS,7aR,E)-7a-methyl-1-((S)-1-((S)-3-methylmorpholino)propan-2-yl)octahydro-4H-inden-4-ylidene)ethylidene)-4-methylenecyclohexane-1,3-diol]
Test 3
  Significant difference (t-test vs DMSO group): **** (<0.0001)

## C=C1/C(=C\C=C2/CCC[C@]3(C)[C@@H]([C@H](C)CN4CCOC[C@H]4C)CC[C@@H]23)C[C@@H](O)C[C@@H]1O [Compound F005, (1R,3S,Z)-5-(2-((1R,3aS,7aR,E)-7a-methyl-1-((S)-1-((R)-3-methylmorpholino)propan-2-yl)octahydro-4H-inden-4-ylidene)ethylidene)-4-methylenecyclohexane-1,3-diol]
Test 3
  Significant difference (t-test vs DMSO group): **** (<0.0001)

## C=C1/C(=C\C=C2/CCC[C@]3(C)[C@@H]([C@H](C)CN4CCOCC4(C)C)CC[C@@H]23)C[C@@H](O)C[C@@H]1O [Compound F006, (1R,3S,Z)-5-(2-((1R,3aS,7aR,E)-1-((S)-1-(3,3-dimethylmorpholino)propan-2-yl)-7a-methyloctahydro-4H-inden-4-ylidene)ethylidene)-4-methylenecyclohexane-1,3-diol]
Test 4
  Significant difference (t-test vs DMSO group): **** (<0.0001)

## C=C1/C(=C\C=C2/CCC[C@]3(C)[C@@H]([C@H](C)CN4CCOC[C@@H]4C4CC4)CC[C@@H]23)C[C@@H](O)C[C@@H]1O [Compound F008, (1R,3 S,Z)-5-(2-((1R,3aS,7aR,E)-1-((S)-1-((S)-3-cyclopropylmorpholino)propan-2-yl)-7a-methyloctahydro-4H-inden-4-ylidene)ethylidene)-4-methylenecyclohexane-1,3-diol]
Test 5
  Significant difference (t-test vs DMSO group): **** (<0.0001)

## C=C1/C(=C\C=C2/CCC[C@]3(C)[C@@H]([C@H](C)CN4CCN(C)C[C@@H]4C)CC[C@@H]23)C[C@@H](O)C[C@@H]1O [Compound F011, (1R,3S,Z)-5-(2-((1R,3aS,7aR,E)-1-((S)-1-((S)-2,4-dimethylpiperazin-1-yl)propan-2-yl)-7a-methyloctahydro-4H-inden-4-ylidene)ethylidene)-4-methylenecyclohexane-1,3-diol]
Test 5
  Significant difference (t-test vs DMSO group): *** (<0.001)

## C=C1/C(=C\C=C2/CCC[C@]3(C)[C@@H]([C@H](C)CN4CCC[C@@H]4C(C)(C)O)CC[C@@H]23)C[C@@H](O)C[C@@H]1O [Compound F013, (1R,3S,Z)-5-(2-((1R,3aS,7aR,E)-1-((S)-1-((R)-2-(2-hydroxypropan-2-yl)pyrrolidin-1-yl)propan-2-yl)-7a-methyloctahydro-4H-inden-4-ylidene)ethylidene)-4-methylenecyclohexane-1,3-diol]
Test 9
  Significant difference (t-test vs DMSO group): **** (<0.0001)

## C=C1/C(=C\C=C2/CCC[C@]3(C)[C@@H]([C@H](C)CN4CCC[C@H]4C(C)(C)O)CC[C@@H]23)C[C@@H](O)C[C@@H]1O [Compound F014, (1R,3S,Z)-5-(2-((1R,3aS,7aR,E)-1-((S)-1-((S)-2-(2-hydroxypropan-2-yl)pyrrolidin-1-yl)propan-2-yl)-7a-methyloctahydro-4H-inden-4-ylidene)ethylidene)-4-methylenecyclohexane-1,3-diol]
Test 8
  Significant difference (t-test vs DMSO group): *** (<0.001)

## C=C1/C(=C\C=C2/CCC[C@]3(C)[C@@H]([C@H](C)CN4CCC[C@@H]4C(C)(C)OC)CC[C@@H]23)C[C@@H](O)C[C@@H]1O [Compound F015, (1R,3S,Z)-5-(2-((1R,3aS,7aR,E)-1-((S)-1-((R)-2-(2-methoxypropan-2-yl)pyrrolidin-1-yl)propan-2-yl)-7a-methyloctahydro-4H-inden-4-ylidene)ethylidene)-4-methylenecyclohexane-1,3-diol]
Test 8
  Significant difference (t-test vs DMSO group): *** (<0.001)

## C=C1/C(=C\C=C2/CCC[C@]3(C)[C@@H]([C@H](C)CN4CCC[C@H]4C(C)(C)OC)CC[C@@H]23)C[C@@H](O)C[C@@H]1O [Compound F016, (1R,3S,Z)-5-(2-((1R,3aS,7aR,E)-1-((S)-1-((S)-2-(2-methoxypropan-2-yl)pyrrolidin-1-yl)propan-2-yl)-7a-methyloctahydro-4H-inden-4-ylidene)ethylidene)-4-methylenecyclohexane-1,3-diol]
Test 8
  Significant difference (t-test vs DMSO group): *** (<0.001)

## C[C@H](CN1CCCC[C@@H]1C)[C@H]1CC[C@H]2/C(=C/C=C3C[C@@H](O)C[C@H](O)C3)CCC[C@]12C [Compound G001, (1R,3R)-5-(2-((1R,3aS,7aR,E)-7a-methyl-1-((S)-1-((S)-2-methylpiperidin-1-yl)propan-2-yl)octahydro-4H-inden-4-ylidene)ethylidene)cyclohexane-1,3-diol]
Test 3
  Significant difference (t-test vs DMSO group): **** (<0.0001)

## C[C@H](CN1CCCC[C@H]1C)[C@H]1CC[C@H]2/C(=C/C=C3C[C@@H](O)C[C@H](O)C3)CCC[C@]12C [Compound G002, (1R,3R)-5-(2-((1R,3aS,7aR,E)-7a-methyl-1-((S)-1-((R)-2-methylpiperidin-1-yl)propan-2-yl)octahydro-4H-inden-4-ylidene)ethylidene)cyclohexane-1,3-diol]
Test 3
  Significant difference (t-test vs DMSO group): **** (<0.0001)

## C[C@H](CN1CCCCC1(C)C)[C@H]1CC[C@H]2/C(=C/C=C3C[C@@H](O)C[C@H](O)C3)CCC[C@]12C [Compound G003, (1R,3R)-5-(2-((1R,3aS,7aR,E)-1-((S)-1-(2,2-dimethylpiperidin-1-yl)propan-2-yl)-7a-methyloctahydro-4H-inden-4-ylidene)ethylidene)cyclohexane-1,3-diol]
Test 3
  Significant difference (t-test vs DMSO group): **** (<0.0001)

## C[C@H](CN1CCOC[C@@H]1C)[C@H]1CC[C@H]2/C(=C/C=C3C[C@@H](O)C[C@H](O)C3)CCC[C@]12C [Compound G004, (1R,3R)-5-(2-((1R,3aS,7aR,E)-7a-methyl-1-((S)-1-((S)-3-methylmorpholino)propan-2-yl)octahydro-4H-inden-4-ylidene)ethylidene)cyclohexane-1,3-diol]
Test 3
  Significant difference (t-test vs DMSO group): **** (<0.0001)

## C[C@H](CN1CCOC[C@H]1C)[C@H]1CC[C@H]2/C(=C/C=C3C[C@@H](O)C[C@H](O)C3)CCC[C@]12C [Compound G005, (1R,3R)-5-(2-((1R,3aS,7aR,E)-7a-methyl-1-((S)-1-((R)-3-methylmorpholino)propan-2-yl)octahydro-4H-inden-4-ylidene)ethylidene)cyclohexane-1,3-diol]
Test 3
  Significant difference (t-test vs DMSO group): **** (<0.0001)

## C[C@H](CN1CCOCC1(C)C)[C@H]1CC[C@H]2/C(=C/C=C3C[C@@H](O)C[C@H](O)C3)CCC[C@]12C [Compound G006, (1R,3R)-5-(2-((1R,3aS,7aR,E)-1-((S)-1-(3,3-dimethylmorpholino)propan-2-yl)-7a-methyloctahydro-4H-inden-4-ylidene)ethylidene)cyclohexane-1,3-diol]
Test 4
  Significant difference (t-test vs DMSO group): **** (<0.0001)

## C[C@H](CN1CCOCC12CC2)[C@H]1CC[C@H]2/C(=C/C=C3C[C@@H](O)C[C@H](O)C3)CCC[C@]12C [Compound G007, (1R,3R)-5-(2-((1R,3aS,7aR,E)-1-((S)-1-(7-oxa-4-azaspiro[2.5]octan-4-yl)propan-2-yl)-7a-methyloctahydro-4H-inden-4-ylidene)ethylidene)cyclohexane-1,3-diol]
Test 4
  Significant difference (t-test vs DMSO group): **** (<0.0001)

## C[C@H](CN1CCOC[C@@H]1C1CC1)[C@H]1CC[C@H]2/C(=C/C=C3C[C@@H](O)C[C@H](O)C3)CCC[C@]12C [Compound G008, (1R,3R)-5-(2-((1R,3aS,7aR,E)-1-((S)-1-((S)-3-cyclopropylmorpholino)propan-2-yl)-7a-methyloctahydro-4H-inden-4-ylidene)ethylidene)cyclohexane-1,3-diol]
Test 5
  Significant difference (t-test vs DMSO group): **** (<0.0001)
